# In article PMC8982406:
# These are yes or no findings as the source states them, for the method shown. Binding seen in cells or lysates may run through a third protein. Some results given as binding are weak or reduced against the parent protein; the word gives no strength.
# T1: endogenous RLIM (Daoy cells) (human (endogenous in Daoy)) (UniProt Q9NVW2)
# T1 sequence: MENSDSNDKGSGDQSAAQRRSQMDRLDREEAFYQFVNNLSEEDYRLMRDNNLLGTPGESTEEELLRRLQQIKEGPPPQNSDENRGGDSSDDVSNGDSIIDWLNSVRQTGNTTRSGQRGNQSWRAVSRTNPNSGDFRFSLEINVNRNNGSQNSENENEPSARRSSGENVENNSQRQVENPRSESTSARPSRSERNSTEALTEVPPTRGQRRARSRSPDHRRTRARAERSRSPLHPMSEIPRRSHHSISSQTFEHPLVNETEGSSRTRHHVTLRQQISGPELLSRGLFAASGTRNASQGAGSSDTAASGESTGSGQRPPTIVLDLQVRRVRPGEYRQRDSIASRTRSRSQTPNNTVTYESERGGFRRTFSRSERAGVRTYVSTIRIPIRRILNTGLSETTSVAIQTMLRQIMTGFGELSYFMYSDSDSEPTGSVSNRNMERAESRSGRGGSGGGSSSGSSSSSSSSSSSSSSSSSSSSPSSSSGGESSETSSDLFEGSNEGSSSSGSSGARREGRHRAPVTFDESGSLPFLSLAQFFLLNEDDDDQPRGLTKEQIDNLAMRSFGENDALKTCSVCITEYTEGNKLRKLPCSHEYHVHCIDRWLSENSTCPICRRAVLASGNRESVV
# T2: ZC4H2 (wild type; mapping and mutation co-IPs) (UniProt Q9NQZ6)
# T2 sequence: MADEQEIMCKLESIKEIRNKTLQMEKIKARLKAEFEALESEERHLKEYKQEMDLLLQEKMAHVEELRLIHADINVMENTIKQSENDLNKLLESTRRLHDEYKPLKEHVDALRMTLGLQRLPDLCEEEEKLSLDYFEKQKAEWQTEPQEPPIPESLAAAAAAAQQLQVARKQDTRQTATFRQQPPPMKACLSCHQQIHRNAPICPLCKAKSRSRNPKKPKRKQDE
# Biological target: T1, endogenous RLIM (Daoy cells) (human (endogenous in Daoy))
# Experiment: co-IP; endogenous RLIM immunoprecipitated with an RLIM antibody from Daoy cell or Ptch1+/- MB tissue lysate; 50 mM Tris-HCl pH 7.4, 150 mM NaCl, 5 mM EDTA, 1% Triton X-100; 4°C, 4 h; western blotting
row,Binder,binding
1,"endogenous ZC4H2 (Daoy cells) (protein, UniProt Q9NQZ6 1-224) MADEQEIMCKLESIKEIRNKTLQMEKIKARLKAEFEALESEERHLKEYKQEMDLLLQEKMAHVEELRLIHADINVMENTIKQSENDLNKLLESTRRLHDEYKPLKEHVDALRMTLGLQRLPDLCEEEEKLSLDYFEKQKAEWQTEPQEPPIPESLAAAAAAAQQLQVARKQDTRQTATFRQQPPPMKACLSCHQQIHRNAPICPLCKAKSRSRNPKKPKRKQDE",binds

# Biological target: T2, ZC4H2 (wild type; mapping and mutation co-IPs)
# Experiment: co-IP; HEK293 cells transiently transfected with FLAG- or myc-tagged RLIM and ZC4H2 vectors; lysis in 50 mM Tris-HCl pH 7.4, 150 mM NaCl, 5 mM EDTA, 1% Triton X-100; anti-FLAG M2 beads, 4°C, 4 h; western blotting
row,Binder,binding
1,"RLIM R387C (protein, UniProt Q9NVW2 1-624) MENSDSNDKGSGDQSAAQRRSQMDRLDREEAFYQFVNNLSEEDYRLMRDNNLLGTPGESTEEELLRRLQQIKEGPPPQNSDENRGGDSSDDVSNGDSIIDWLNSVRQTGNTTRSGQRGNQSWRAVSRTNPNSGDFRFSLEINVNRNNGSQNSENENEPSARRSSGENVENNSQRQVENPRSESTSARPSRSERNSTEALTEVPPTRGQRRARSRSPDHRRTRARAERSRSPLHPMSEIPRRSHHSISSQTFEHPLVNETEGSSRTRHHVTLRQQISGPELLSRGLFAASGTRNASQGAGSSDTAASGESTGSGQRPPTIVLDLQVRRVRPGEYRQRDSIASRTRSRSQTPNNTVTYESERGGFRRTFSRSERAGVRTYVSTIRIPICRILNTGLSETTSVAIQTMLRQIMTGFGELSYFMYSDSDSEPTGSVSNRNMERAESRSGRGGSGGGSSSGSSSSSSSSSSSSSSSSSSSSPSSSSGGESSETSSDLFEGSNEGSSSSGSSGARREGRHRAPVTFDESGSLPFLSLAQFFLLNEDDDDQPRGLTKEQIDNLAMRSFGENDALKTCSVCITEYTEGNKLRKLPCSHEYHVHCIDRWLSENSTCPICRRAVLASGNRESVV",binds
2,"RLIM D598N (protein, UniProt Q9NVW2 1-624) MENSDSNDKGSGDQSAAQRRSQMDRLDREEAFYQFVNNLSEEDYRLMRDNNLLGTPGESTEEELLRRLQQIKEGPPPQNSDENRGGDSSDDVSNGDSIIDWLNSVRQTGNTTRSGQRGNQSWRAVSRTNPNSGDFRFSLEINVNRNNGSQNSENENEPSARRSSGENVENNSQRQVENPRSESTSARPSRSERNSTEALTEVPPTRGQRRARSRSPDHRRTRARAERSRSPLHPMSEIPRRSHHSISSQTFEHPLVNETEGSSRTRHHVTLRQQISGPELLSRGLFAASGTRNASQGAGSSDTAASGESTGSGQRPPTIVLDLQVRRVRPGEYRQRDSIASRTRSRSQTPNNTVTYESERGGFRRTFSRSERAGVRTYVSTIRIPIRRILNTGLSETTSVAIQTMLRQIMTGFGELSYFMYSDSDSEPTGSVSNRNMERAESRSGRGGSGGGSSSGSSSSSSSSSSSSSSSSSSSSPSSSSGGESSETSSDLFEGSNEGSSSSGSSGARREGRHRAPVTFDESGSLPFLSLAQFFLLNEDDDDQPRGLTKEQIDNLAMRSFGENDALKTCSVCITEYTEGNKLRKLPCSHEYHVHCINRWLSENSTCPICRRAVLASGNRESVV",binds
3,"RLIM R611C (protein, UniProt Q9NVW2 1-624) MENSDSNDKGSGDQSAAQRRSQMDRLDREEAFYQFVNNLSEEDYRLMRDNNLLGTPGESTEEELLRRLQQIKEGPPPQNSDENRGGDSSDDVSNGDSIIDWLNSVRQTGNTTRSGQRGNQSWRAVSRTNPNSGDFRFSLEINVNRNNGSQNSENENEPSARRSSGENVENNSQRQVENPRSESTSARPSRSERNSTEALTEVPPTRGQRRARSRSPDHRRTRARAERSRSPLHPMSEIPRRSHHSISSQTFEHPLVNETEGSSRTRHHVTLRQQISGPELLSRGLFAASGTRNASQGAGSSDTAASGESTGSGQRPPTIVLDLQVRRVRPGEYRQRDSIASRTRSRSQTPNNTVTYESERGGFRRTFSRSERAGVRTYVSTIRIPIRRILNTGLSETTSVAIQTMLRQIMTGFGELSYFMYSDSDSEPTGSVSNRNMERAESRSGRGGSGGGSSSGSSSSSSSSSSSSSSSSSSSSPSSSSGGESSETSSDLFEGSNEGSSSSGSSGARREGRHRAPVTFDESGSLPFLSLAQFFLLNEDDDDQPRGLTKEQIDNLAMRSFGENDALKTCSVCITEYTEGNKLRKLPCSHEYHVHCIDRWLSENSTCPICCRAVLASGNRESVV",binds
4,"RLIM P77L (protein, UniProt Q9NVW2 1-624) MENSDSNDKGSGDQSAAQRRSQMDRLDREEAFYQFVNNLSEEDYRLMRDNNLLGTPGESTEEELLRRLQQIKEGPPLQNSDENRGGDSSDDVSNGDSIIDWLNSVRQTGNTTRSGQRGNQSWRAVSRTNPNSGDFRFSLEINVNRNNGSQNSENENEPSARRSSGENVENNSQRQVENPRSESTSARPSRSERNSTEALTEVPPTRGQRRARSRSPDHRRTRARAERSRSPLHPMSEIPRRSHHSISSQTFEHPLVNETEGSSRTRHHVTLRQQISGPELLSRGLFAASGTRNASQGAGSSDTAASGESTGSGQRPPTIVLDLQVRRVRPGEYRQRDSIASRTRSRSQTPNNTVTYESERGGFRRTFSRSERAGVRTYVSTIRIPIRRILNTGLSETTSVAIQTMLRQIMTGFGELSYFMYSDSDSEPTGSVSNRNMERAESRSGRGGSGGGSSSGSSSSSSSSSSSSSSSSSSSSPSSSSGGESSETSSDLFEGSNEGSSSSGSSGARREGRHRAPVTFDESGSLPFLSLAQFFLLNEDDDDQPRGLTKEQIDNLAMRSFGENDALKTCSVCITEYTEGNKLRKLPCSHEYHVHCIDRWLSENSTCPICRRAVLASGNRESVV",binds
5,"RLIM R365C (protein, UniProt Q9NVW2 1-624) MENSDSNDKGSGDQSAAQRRSQMDRLDREEAFYQFVNNLSEEDYRLMRDNNLLGTPGESTEEELLRRLQQIKEGPPPQNSDENRGGDSSDDVSNGDSIIDWLNSVRQTGNTTRSGQRGNQSWRAVSRTNPNSGDFRFSLEINVNRNNGSQNSENENEPSARRSSGENVENNSQRQVENPRSESTSARPSRSERNSTEALTEVPPTRGQRRARSRSPDHRRTRARAERSRSPLHPMSEIPRRSHHSISSQTFEHPLVNETEGSSRTRHHVTLRQQISGPELLSRGLFAASGTRNASQGAGSSDTAASGESTGSGQRPPTIVLDLQVRRVRPGEYRQRDSIASRTRSRSQTPNNTVTYESERGGFRCTFSRSERAGVRTYVSTIRIPIRRILNTGLSETTSVAIQTMLRQIMTGFGELSYFMYSDSDSEPTGSVSNRNMERAESRSGRGGSGGGSSSGSSSSSSSSSSSSSSSSSSSSPSSSSGGESSETSSDLFEGSNEGSSSSGSSGARREGRHRAPVTFDESGSLPFLSLAQFFLLNEDDDDQPRGLTKEQIDNLAMRSFGENDALKTCSVCITEYTEGNKLRKLPCSHEYHVHCIDRWLSENSTCPICRRAVLASGNRESVV",binds
6,"RLIM P587R (protein, UniProt Q9NVW2 1-624) MENSDSNDKGSGDQSAAQRRSQMDRLDREEAFYQFVNNLSEEDYRLMRDNNLLGTPGESTEEELLRRLQQIKEGPPPQNSDENRGGDSSDDVSNGDSIIDWLNSVRQTGNTTRSGQRGNQSWRAVSRTNPNSGDFRFSLEINVNRNNGSQNSENENEPSARRSSGENVENNSQRQVENPRSESTSARPSRSERNSTEALTEVPPTRGQRRARSRSPDHRRTRARAERSRSPLHPMSEIPRRSHHSISSQTFEHPLVNETEGSSRTRHHVTLRQQISGPELLSRGLFAASGTRNASQGAGSSDTAASGESTGSGQRPPTIVLDLQVRRVRPGEYRQRDSIASRTRSRSQTPNNTVTYESERGGFRRTFSRSERAGVRTYVSTIRIPIRRILNTGLSETTSVAIQTMLRQIMTGFGELSYFMYSDSDSEPTGSVSNRNMERAESRSGRGGSGGGSSSGSSSSSSSSSSSSSSSSSSSSPSSSSGGESSETSSDLFEGSNEGSSSSGSSGARREGRHRAPVTFDESGSLPFLSLAQFFLLNEDDDDQPRGLTKEQIDNLAMRSFGENDALKTCSVCITEYTEGNKLRKLRCSHEYHVHCIDRWLSENSTCPICRRAVLASGNRESVV",binds
7,"RLIM R599C (protein, UniProt Q9NVW2 1-624) MENSDSNDKGSGDQSAAQRRSQMDRLDREEAFYQFVNNLSEEDYRLMRDNNLLGTPGESTEEELLRRLQQIKEGPPPQNSDENRGGDSSDDVSNGDSIIDWLNSVRQTGNTTRSGQRGNQSWRAVSRTNPNSGDFRFSLEINVNRNNGSQNSENENEPSARRSSGENVENNSQRQVENPRSESTSARPSRSERNSTEALTEVPPTRGQRRARSRSPDHRRTRARAERSRSPLHPMSEIPRRSHHSISSQTFEHPLVNETEGSSRTRHHVTLRQQISGPELLSRGLFAASGTRNASQGAGSSDTAASGESTGSGQRPPTIVLDLQVRRVRPGEYRQRDSIASRTRSRSQTPNNTVTYESERGGFRRTFSRSERAGVRTYVSTIRIPIRRILNTGLSETTSVAIQTMLRQIMTGFGELSYFMYSDSDSEPTGSVSNRNMERAESRSGRGGSGGGSSSGSSSSSSSSSSSSSSSSSSSSPSSSSGGESSETSSDLFEGSNEGSSSSGSSGARREGRHRAPVTFDESGSLPFLSLAQFFLLNEDDDDQPRGLTKEQIDNLAMRSFGENDALKTCSVCITEYTEGNKLRKLPCSHEYHVHCIDCWLSENSTCPICRRAVLASGNRESVV",binds
